{"source": "patent US20070184549A1", "about": "“Method of inducing fenestrae” (priority 2004, published 2007)", "key": {"bEND5 cells": {"system": "bEND5 cells", "experiment": "Fenestrae induction in bEND5 cells, quantified by stereology on SEM or wholemount TEM images", "conditions": "cytochalasin B alone; SEM time-course", "text": "Images were printed, and sieve plates were marked (solid line). A grid (20 mm×20 mm) was overlaid over each image and the number of grid points falling within the areas delineated or on any cellular structure were counted. Fenestrae abundance was estimated based on the following calculation: Plasma membrane coverage (or fraction of the plasma membrane occupied by sieve plates)=grid points falling on sieve plates/grid points falling on any cell area. To express abundance in terms of the number of fenestrae per area of plasma membrane, the density of fenestrae within sieve plates was calculated and multiplied by the frequency of sieve plates as follows: number of fenestrae per square μm=density of fenestrae×plasma membrane coverage.\nA quantitative assessment of fenestrae numbers was achieved by applying Stereology to SEM or wholemount TEM images (FIG. 3). Quantitative assessment comprised overlaying a lattice on top of an image and counting points falling on fenestrated and on non-fenestrated areas of the plasma membrane. Amounts of fenestrae were routinely expressed as fractions of plasma membrane area that was fenestrated (point counts falling on fenestrae divided by point counts falling on any plasma membrane area). […]"}, "[1]": {"system": "adrenal cortex endothelial cells (ACEs) or HUVECs", "conditions": "previous reports of in vitro studies; cited from earlier work"}}, "note": "At least one compound was matched to its structure with a doubt left. Some results were stated once for a whole list of compounds, not compound by compound."}
{"compound": "C=C1[C@@H](C)[C@H]2[C@H](Cc3ccccc3)NC(=O)[C@]23OC(=O)/C=C/[C@H](O)CCC[C@@H](C)C/C=C/[C@H]3[C@@H]1O", "note": "[cytochalasin B]", "values": [{"measurement": "start of fenestrae formation, time of treatment", "setting": "bEND5 cells", "result": "20 or 30 minutes"}]}
{"compound": "CCCCCCCCCCCCCC(=O)O[C@@H]1[C@@H](C)[C@@]2(O)[C@@H](C=C(CO)C[C@]3(O)C(=O)C(C)=C[C@@H]23)[C@@H]2C(C)(C)[C@]12OC(C)=O", "note": "[phorbol esters]", "values": [{"measurement": "maximal levels of fenestrae", "setting": "[1]", "result": "≤ 0.187", "unit": "fenestrae per μm^2"}]}
{"compound": "CC1=C(/C=C/C(C)=C/C=C/C(C)=C/C(=O)O)C(C)(C)CCC1", "note": "[retinoic acid]", "values": [{"measurement": "maximal levels of fenestrae", "setting": "[1]", "result": "≤ 0.187", "unit": "fenestrae per μm^2"}]}
